The record followed here is PubChem BioAssay AID1347423 (Functional Genomics Laboratory (NCATS/FGL), 2020).

Hit rate of the full screen: of about 52,000 sequences, about 210 (0.4%) were called active.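 The calls were made as follows: active = gene whose silencing raises cell survival under the drug, median off-target-corrected z-score across its silencing RNAs 2 or more; inactive = the rest.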 Some of the results follow.

The nature of the experiment: Resistance to Poly (ADP-Ribose) Polymerase inhibitor: Gene Identification via Genome-wide siRNA Screen. As to conditions: mouse BRCA2 R2336H ES cells, olaparib, CellTiter-Glo viability; stronger effect = higher value. An outline of the steps: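 Mouse BRCA2 R2336H ES cells were reverse-transfected with siRNA (20 nM final), treated at 48 h with 500 nM olaparib, and read by CellTiter-Glo after 72 h. Scores: MAD-based z per siRNA, median per gene, seed off-target correction.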
Background: Cellular ATP, detected with luciferase, serves as a proxy for viable cell number.
For GGAUAAGAUGGAAAUCCGUTT against Xpo6, the z-score was inactive: 1.63.
With GGAUUUCAAACACGUCUUUTT against Accn5, the z-score is inactive: -0.766.
On to “GGGUAUGAUAUGUUAAUGATT against 2410091C18Rik”, for which the z-score is inactive: 0.392.
With GGGAGCAGAAGCGAAAAGATT against Espn, the z-score was inactive: -0.0669.
Take CCUUUGAAAAGUUACCUCCTT against Klk16: the z-score was inactive: 0.0625.
Under “GGCUAUGGUGAAAUAAACGTT against 1110001M19Rik” stands inactive: 1.29; under “CGACGUAGAAACAGUGCAGTT against C730048E16Rik”, inactive: -0.128.
In the case of GGAAAUACAGAGGGCGAAATT against Espn it was inactive: 1.25.
For the sequence GCAGUUACUUAUCAUCUGGTT against AI842396, the z-score was inactive: 0.205.
In the case of GCAGAUGUCUCAUUUCCGUTT against Car2 it was inactive: 1.73; in that of CCUCCUGACCUUAAUCUUGTT against P2rx1, inactive: 0.352.
Under CGGGCACUAGAACAAGAACTT against Arvcf stands inactive: 0.602; under GGCAGAGCCUAUGAUCUAUTT against Gprin1, inactive: 0.16.
Under CCAAUCCUCAACCUUGAAUTT against Ddx19 stands inactive: -1.07; under GGUUCUGAAAGAGUGUUAGTT against Htatsf1, inactive: -1.93.
In the case of GGGCAAAGUACUCUACACCTT against Fgd5, the z-score was inactive: -0.175.
In the case of GGGCUCGACUCUUAAUUGUTT against Mapkapk5 it was inactive: 0.174.
Turning to GGUCCAGACAUUUGGAUACTT against Cav2, the z-score is inactive: -1.21.
Regarding GCAUAUCCUCUUUCGAAGGTT against Adra2c, the z-score was inactive: -0.0308.
For GCAUUUGGAAACGAUCAAGTT against Chst4, the z-score was inactive: -0.748.
In the case of GGGAGGUGGAAAGCUCUCUTT against Olfr1256, the z-score is inactive: -0.191.
As for AUUGGUUUUCUGGUGUUAATT against Olfr553, the z-score is inactive: -0.209.
“GGUGUCCUUUCAAGUUGAUTT against C530005A01Rik”: the z-score is inactive: -0.63.
Regarding CCUUUCACAUUCAUGUGUATT against Rgs19, the z-score is inactive: 0.852.
In the case of GGCUUUAAGAAUGUAUCGCTT against Dpp3 it was inactive: 2.55; in that of GGCUCUGAAUUAACUCCAGTT against Stk23, inactive: -0.367.
For GCUACUUUGUCCCUCUUACTT against Olfr33, the z-score is inactive: -0.926.
Take “GGACUGAACAGUAUUAAGUTT against B230339H12Rik”: the z-score is inactive: 0.0968.
In the case of GGAUUACAGGAAGUUCUGGTT against AW049765, the z-score was inactive: -0.628.
As to GGGAGCUUCUUUUUUCCAATT against Ctf1, the z-score is inactive: 0.162.
Under “CCUAUGCAUCCCUGACUACTT against 1110001A23Rik” stands inactive: 1.29; under GCCGCCCAGACAGAUAAACTT against Bag3, inactive: 1.89; under “GGCAGGAAAGAAAAACGUATT against 4933402J07”, inactive: 1.12.
In the case of GCUAAACCUACAAUUGAUUTT against BC018601 it was inactive: -0.462; in that of CCCGUAUUUGGUGGUCUGCTT against Hyal1, inactive: -0.539.
UCCACUUCACUAAUCCUGUTT against Gm1961: the z-score was inactive: -0.559.
In the case of GCUCUUAAGGUCUUUUAAATT against Crkl it was inactive: -0.205; in that of GGAGUCUUGUCAUCUCCAUTT against Nup35, inactive: 0.104; in that of GGUCACAGCCUACAAUCGATT against Sgca, inactive: 1.01.
With GCUCGCCAGAAAAUUGACCTT against Pmm1, the z-score was inactive: 2.15.
Under GGUCCUACAGGGAAUACCGTT against Habp4 stands inactive: 0.035; under “GGGAGUAGACAGUUAGAAGTT against 2900092C05Rik”, inactive: -0.834.
In the case of GCACUAAAGAAUCUUUACATT against BC023818, the z-score is inactive: 0.0237.
With “GGAUUCUCCUUUACCUUUGTT against B930095G15Rik”, the z-score was inactive: -0.951.
Under CCAGAUUAAGUUUAUAGCCTT against Uros stands inactive: 0.272.
Under GGUCAAAUAAAGCUGUGGUTT against Uba52 stands inactive: -2.42; under GCGGAAUCAUCAGAAACAATT against Acsl6, inactive: -0.249; under “CGGUUCAACACAACAACACTT against C230078M14”, inactive: -0.778.
GGUUGGAUUCUCUUUGUCATT against Rbm8: the z-score is inactive: -3.53.
In the case of CCCUCUACAAUAUUCUCUATT against Olfr1118 it was inactive: -0.024; in that of GGAGGAGAUGAAUGCUCUGTT against Krt1-17, inactive: 0.854; in that of GGAAUUUAAGGAAGCUGCUTT against Homer1, inactive: -1.2.
As to GGAUGAAAUUAACUCUGAATT against Adprt1, the z-score is active: 2.49.
On to “GCUAAAGAAAAGUGGAGACTT against 2610029G23Rik”, for which the z-score was inactive: -0.314.
In the case of CCUUGUUCCCACUUUUGUATT against Cirbp it was inactive: -0.223; in that of GGACCGCGUUCAAGAAGAATT against Cyp2c37, inactive: -0.469; in that of GGUAGAAUUGUGAUCUCAGTT against Bcdo2, inactive: -0.24.
As for GGCAGGUUUUUGAACUGGUTT against Olfr725, the z-score is inactive: -0.89.
Under GGGAACCUCUGAAAAGAGGTT against LOC433365 stands inactive: 0.538.
In the case of CCUGACUCCUACUCAAUUATT against Hcrtr1, the z-score is inactive: 0.231.
As for GGUGUCAAUCAUGUUGUCATT against Susd2, the z-score was inactive: -1.15.
Turning to GGCGCAUCCAAACUUUGAUTT against Kcnq3, the z-score was inactive: 0.167.
In the case of GGAUGUGAAGGAUGGGAAGTT against Rps18 it was inactive: -3.24; in that of “GCCAGGAGUCCUUUAGGAATT against 8430420C20Rik”, inactive: 2.68; in that of GCGAGUAUUCAGAUCAUACTT against Wsb2, inactive: -1.3.
In the case of “GCGUGGUUACGCUAUGAUCTT against 2410008J05Rik” it was inactive: 0.325.
